No constants are given. Whether binding was seen depends on the method and setting. In cells and extracts the contact can be indirect. Some binding calls cover weakened binding; strength is not graded here.
Target: GFP-Mm_Gli2 (GLI-family zinc finger-2, Mus musculus), expressed from pEGFP-C in HEK293FT (Mus musculus) (UniProt Q0VGT2)
Assay: co-IP; GFP-Gli2 precipitated with GFP-Trap beads from lysates of transfected HEK293FT; 10 mM Tris/HCl pH 7.5, 150 mM NaCl, 0.5 mM EDTA, 0.1% Triton X-100; 4°C, 2 h; endogenous importins detected by western blot

Amino acid sequences for entries named in this document (tags omitted).
UniProt Q0VGT2: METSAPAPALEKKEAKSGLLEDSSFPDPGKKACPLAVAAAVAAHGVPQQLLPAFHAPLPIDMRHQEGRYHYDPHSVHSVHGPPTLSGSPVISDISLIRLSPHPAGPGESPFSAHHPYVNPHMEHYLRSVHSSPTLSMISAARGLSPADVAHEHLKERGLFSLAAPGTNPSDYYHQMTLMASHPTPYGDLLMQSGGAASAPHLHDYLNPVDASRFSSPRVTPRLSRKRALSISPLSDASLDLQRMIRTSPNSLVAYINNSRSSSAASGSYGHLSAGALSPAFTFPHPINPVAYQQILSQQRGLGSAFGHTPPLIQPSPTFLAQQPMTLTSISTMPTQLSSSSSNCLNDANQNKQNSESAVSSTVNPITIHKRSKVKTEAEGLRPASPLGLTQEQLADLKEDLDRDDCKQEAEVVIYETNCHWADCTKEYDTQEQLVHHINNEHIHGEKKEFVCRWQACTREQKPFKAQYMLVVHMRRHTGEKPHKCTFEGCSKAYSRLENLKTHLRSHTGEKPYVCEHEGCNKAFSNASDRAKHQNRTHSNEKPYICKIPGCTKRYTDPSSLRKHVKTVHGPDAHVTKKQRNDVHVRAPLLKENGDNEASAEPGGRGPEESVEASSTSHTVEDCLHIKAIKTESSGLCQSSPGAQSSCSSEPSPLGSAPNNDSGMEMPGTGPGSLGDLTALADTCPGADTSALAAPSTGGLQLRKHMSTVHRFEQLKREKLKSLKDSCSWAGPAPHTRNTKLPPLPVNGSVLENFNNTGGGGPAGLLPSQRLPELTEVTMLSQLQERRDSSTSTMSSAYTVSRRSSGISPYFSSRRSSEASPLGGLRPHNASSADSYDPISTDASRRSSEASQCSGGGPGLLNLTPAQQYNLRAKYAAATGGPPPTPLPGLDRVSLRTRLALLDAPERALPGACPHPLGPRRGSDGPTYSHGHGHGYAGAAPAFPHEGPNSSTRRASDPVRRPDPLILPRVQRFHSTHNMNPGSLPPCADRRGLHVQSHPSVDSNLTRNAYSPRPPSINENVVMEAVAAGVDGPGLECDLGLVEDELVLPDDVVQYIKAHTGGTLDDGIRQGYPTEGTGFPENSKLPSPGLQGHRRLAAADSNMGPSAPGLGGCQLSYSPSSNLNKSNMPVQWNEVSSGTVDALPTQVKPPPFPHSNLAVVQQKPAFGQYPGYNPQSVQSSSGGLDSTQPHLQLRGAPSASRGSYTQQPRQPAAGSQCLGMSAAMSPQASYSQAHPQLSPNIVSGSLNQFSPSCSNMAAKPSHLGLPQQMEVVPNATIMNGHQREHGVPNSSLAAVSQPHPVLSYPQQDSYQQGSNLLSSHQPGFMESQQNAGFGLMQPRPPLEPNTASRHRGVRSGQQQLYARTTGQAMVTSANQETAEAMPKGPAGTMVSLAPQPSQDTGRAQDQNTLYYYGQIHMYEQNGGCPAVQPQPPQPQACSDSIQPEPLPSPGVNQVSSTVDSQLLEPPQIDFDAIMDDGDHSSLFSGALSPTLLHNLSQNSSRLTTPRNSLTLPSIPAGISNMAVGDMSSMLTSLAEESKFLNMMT
UniProt Q92973: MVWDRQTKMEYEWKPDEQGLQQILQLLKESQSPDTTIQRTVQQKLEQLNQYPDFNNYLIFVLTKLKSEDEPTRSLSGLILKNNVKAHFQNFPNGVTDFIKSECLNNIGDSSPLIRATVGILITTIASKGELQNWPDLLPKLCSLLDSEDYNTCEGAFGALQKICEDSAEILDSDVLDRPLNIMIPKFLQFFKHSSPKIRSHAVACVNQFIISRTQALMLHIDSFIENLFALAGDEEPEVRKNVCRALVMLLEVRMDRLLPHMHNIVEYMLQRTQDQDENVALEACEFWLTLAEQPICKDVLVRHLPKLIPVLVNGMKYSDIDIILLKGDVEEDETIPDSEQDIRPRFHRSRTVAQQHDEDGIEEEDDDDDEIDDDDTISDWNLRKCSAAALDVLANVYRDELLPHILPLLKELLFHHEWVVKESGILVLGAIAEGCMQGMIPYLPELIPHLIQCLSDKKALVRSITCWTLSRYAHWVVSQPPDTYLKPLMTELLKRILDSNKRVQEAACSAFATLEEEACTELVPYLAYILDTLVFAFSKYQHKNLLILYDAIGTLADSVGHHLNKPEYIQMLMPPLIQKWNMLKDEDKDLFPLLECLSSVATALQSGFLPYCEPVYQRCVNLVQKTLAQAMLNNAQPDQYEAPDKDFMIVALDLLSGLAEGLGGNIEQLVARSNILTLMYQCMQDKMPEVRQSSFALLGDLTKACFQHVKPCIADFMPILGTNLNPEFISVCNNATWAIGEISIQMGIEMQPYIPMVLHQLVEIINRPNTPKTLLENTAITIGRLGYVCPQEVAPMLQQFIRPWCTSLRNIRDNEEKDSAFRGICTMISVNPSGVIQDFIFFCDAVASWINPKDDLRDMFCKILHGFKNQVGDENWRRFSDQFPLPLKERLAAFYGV

- binding: binds
Substance: Imp-β2 (importin-β2), endogenous in HEK293FT (from UniProt Q92973 1-898)
